Data reported in PubChem BioAssay AID493014 (National Center for Advancing Translational Sciences (NCATS), 2011).
In all, about 340,000 compounds went through this assay and about 170 (0.05%) were called active. Inconclusive results, whose numbers are uncertain, are shown with a selection of clear calls. Calls come from the whole dose curve; as a rule, active = well fitted inhibition curve with a large enough effect in the signal ratio, with a control signal flat (not every such curve was filed as active); inconclusive = small, poorly fitted or top-dose-only effect, or effect the other way, or a change in a side signal; inactive = flat fitted curve, though single readings scatter; the % refers to the signal ratio. A potency beside an inconclusive call is a rough fit, not a confirmed value.
Potency is the fitted concentration of half-maximal effect.

Assay: qHTS Assay to Find Inhibitors of Chronic Active B-Cell Receptor Signaling;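 for activity change, negative = inhibition: plate controls were basal doxycycline-induced cells for no effect and cells given 10 µM MG132 for full effect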
Conditions: ABC-DLBCL IkBa-CBG/CBR reporter, luminescence ratio (green luciferase fused to IkBa over red control in TMD8 lymphoma cells), 4 h; activity change, negative = inhibition: at 46.1 µM (top of the series)
Method in brief: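 Doxycycline induced both beetle luciferases in TMD8 lymphoma cells; IKK-driven degradation limits the IkappaBalpha-fused green signal, while red luminescence normalises for cell number and nonspecific effects. Compounds tested up to 46 uM, 4 hrs.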
With `COc1cccc2cc(C(=O)NC3CC4CCC3C4)oc12` (stereo unspecified) the activity change, negative = inhibition was inconclusive: -1.37%. For `CC1CCN(S(=O)(=O)c2ccc3c(c2)N(CC(=O)NCCN2C(C)CCCC2C)C(=O)CS3)CC1` (stereo unspecified), the activity change, negative = inhibition was “inactive”. With `C/C(=N\NC(=O)c1ccncc1)c1cccc(NC(=O)c2ccc(C(C)(C)C)cc2)c1` the Potency was inconclusive: 17.8 µM [falling, single point]. With `COc1cccc(NC(=S)NCc2ccco2)c1` the activity change, negative = inhibition was inconclusive: 10.3%. With `N#Cc1cccc(C(c2nnnn2C2CCCC2)N2CCCCCC2)c1` (stereo unspecified) the activity change, negative = inhibition was inconclusive: 4%. In the case of `CCOC(=O)N(Cc1ccccc1)C(C(=O)O)C(C(=O)O)N(Cc1ccccc1)C(=O)OCC` (stereo unspecified), the activity change, negative = inhibition is reported as inconclusive: 6.33%. With `Fc1ccc(-n2c(Cc3ccccc3)nnc2SCc2nc(-c3cccs3)no2)cc1` the activity change, negative = inhibition was inconclusive: -8.38%. In the case of `Cc1cc(C)cc(NC(=O)C2CCCN2/C=C/C(=O)C(F)(F)F)c1` (stereo unspecified), the activity change, negative = inhibition is reported as inconclusive: 7.64%. With `COc1ccc(NC2CCCN(C(=O)CN3C(=O)c4ccccc4C3=O)C2)cc1OC` (stereo unspecified) the activity change, negative = inhibition was inconclusive: -2.73%. With `CC(=O)C1=C(C)N(CC2CC2)C(=O)N[C@H]1c1ccc(Br)cc1` the activity change, negative = inhibition was “inactive”. With `CCC(C)NCCOCCOc1ccc(Cl)cc1Br` (stereo unspecified) the activity change, negative = inhibition was inconclusive: -13.6%. With `COC(=O)c1ccc(C(=O)Nc2ccc3nc(-c4ccncc4)[nH]c3c2)cc1` the activity change, negative = inhibition was inconclusive: 10%. For `CC(C)N1CCN(Cc2ccc3c(c2)Cc2ccccc2-3)CC1CCO` (stereo unspecified), the activity change, negative = inhibition was inconclusive: -10.9%. With `COc1ccc(/C=N/NC(=O)c2ccc(O)cc2)cc1CN1CCCc2ccccc21` the Potency was inconclusive: 4.61 µM [rising, full curve]. For `O=C(/C=C/c1cccc(Cl)c1)N1CCC(Cc2ccccc2)CC1`, the activity change, negative = inhibition was inconclusive: -0.878%. For `CCOc1ccccc1-c1nc(-c2ccc(C)nc2OC)no1`, the activity change, negative = inhibition was inconclusive: -0.631%. For `O=C(COc1nsnc1N1CCOCC1)Nc1ccc(Cl)cc1`, the activity change, negative = inhibition was inconclusive: -16.6%. In the case of `CCOC(=O)c1ccc(N2C(=O)CC(N(Cc3ccc4c(c3)OCO4)C(=O)Nc3ccccc3)C2=O)cc1` (stereo unspecified), the activity change, negative = inhibition is reported as inconclusive: -9.8%. With `COc1cc(-c2nnc(SCc3cc(=O)oc4cc(C)ccc34)o2)cc(OC)c1OC` the activity change, negative = inhibition was inconclusive: 2.27%. In the case of `O=C(Cc1ccc(-n2c(=O)c3ccccc3n(Cc3cccc([N+](=O)[O-])c3)c2=O)cc1)NCC1CCCO1` (stereo unspecified), the activity change, negative = inhibition is reported as inconclusive: -7.57%. In the case of `CN1/C(=C/C(=O)CSc2ccccc2C(=O)O)C(C)(C)c2ccccc21`, the Potency is reported as inconclusive: 14.1 µM [rising, single point]. In the case of `NCC12CC3CC(CC(O)(C3)C1)C2`, the activity change, negative = inhibition is reported as inconclusive: -6.15%. In the case of `Cc1ccc(S(=O)(=O)/N=C2/NC(=O)/C(=C/c3ccc(Br)o3)S2)cc1`, the activity change, negative = inhibition is reported as inconclusive: 4.38%. In the case of `NC1=NC[C@@H](Cc2ccc(O)cc2)N1CC1CCCCC1`, the activity change, negative = inhibition is reported as inconclusive: 0.892%. For `CC(=O)c1ccc(NC(=S)NC(=O)Cc2ccc(Cl)cc2)cc1`, the activity change, negative = inhibition was inconclusive: 4.52%. In the case of `CCCC(=O)Nc1ccc2c(c1)nc(CN1CCCCC1)n2C`, the activity change, negative = inhibition is reported as “inactive”. For `Cc1ccn2cc(-c3cccc(NC(=O)c4ccccc4)c3)nc2c1`, the activity change, negative = inhibition was inconclusive: -1.01%. In the case of `CC(NC(=O)c1ccc(S(=O)(=O)NCc2ccco2)cc1)c1ccc(F)cc1` (stereo unspecified), the activity change, negative = inhibition is reported as inconclusive: -0.588%. For `COc1ccc(C(C)=O)cc1COc1cccnc1[N+](=O)[O-]`, the activity change, negative = inhibition was inconclusive: -5.53%. With `C/C(=N\NC(=O)c1ccccc1F)c1ccc(C#N)cc1` the activity change, negative = inhibition was inconclusive: -3.71%. With `O=S(=O)(c1ccc(F)cc1)N1CC=C(c2ccccc2)CC1` the activity change, negative = inhibition was inconclusive: 23.9%. With `CN(C(=O)c1ccccc1OCc1ccc(F)cc1)c1c(N)n(Cc2ccccc2)c(=O)[nH]c1=O` the activity change, negative = inhibition was inconclusive: -4.95%. With `Cc1ccccc1N(Cc1ccccc1F)S(C)(=O)=O` the activity change, negative = inhibition was inconclusive: 23.2%. With `CC(C)(C)Cc1nnc(NC(=O)CCC2CCCCC2)s1` the activity change, negative = inhibition was “inactive”. For `CC(C)C(=O)NCCc1c[nH]c2ccccc12`, the activity change, negative = inhibition was “inactive”. For `COC(=O)c1nnn(-c2nonc2N)c1COc1ccc(C=O)cc1OC`, the activity change, negative = inhibition was inconclusive: -4.39%. For `COc1ccc(C(=S)N2CCOCC2)cc1OC(=O)c1ccc([N+](=O)[O-])cc1[N+](=O)[O-]`, the Potency was inconclusive: 25.1 µM [falling, single point]. In the case of `Cc1ccc(C(=O)N(CC#N)CC#N)cc1C`, the activity change, negative = inhibition is reported as inconclusive: 10.7%. With `CCOC(=O)N1CCN(C(=O)c2ccc(CS(=O)(=O)c3c(Cl)cccc3Cl)o2)CC1` the activity change, negative = inhibition was inconclusive: 5.62%. With `COC(=O)c1cc(NC2c3ccccc3C(=O)N2CCN2CCOCC2)cc(C(=O)OC)c1` (stereo unspecified) the Potency was inconclusive: 7.31 µM [falling, single point]. With `O=C(NCc1cccnc1)c1ccc(NC(=O)c2ccco2)cc1` the activity change, negative = inhibition was inconclusive: 12.8%. For `CCCCOCCCNC(=O)c1ccccc1OCC`, the activity change, negative = inhibition was inconclusive: 1.67%. For `CC1Oc2ccccc2C=C1/C=N/NC(=O)c1ccccc1O` (stereo unspecified), the Potency was inconclusive: 4.61 µM [falling, partial curve]. In the case of `Cc1c(Br)c([N+](=O)[O-])nn1CC(=O)Nc1ccc(C(N)=O)cc1`, the activity change, negative = inhibition is reported as “inactive”. With `Cc1ccc(C#N)c(SCc2ccccc2[N+](=O)[O-])n1` the Potency was inconclusive: 16.4 µM [falling, partial curve]. In the case of `CCn1c(O)c(N=NC2=NC(=O)CS2)c2ccccc21`, the activity change, negative = inhibition is reported as “inactive”. For `O=C(Nc1cccc2ccccc12)c1ccc(Br)o1`, the Potency was inconclusive: 10.3 µM [falling, partial curve, poor fit]. In the case of `Cc1ccc(C)c(N2C(=O)N(Cc3c(F)cccc3Cl)c3ccccc3S2(=O)=O)c1`, the Potency is reported as inconclusive: 3.55 µM [falling, full curve, poor fit]. In the case of `O=C(CSc1nccc(=O)[nH]1)Nc1ccc(Oc2ccccc2)cc1`, the activity change, negative = inhibition is reported as “inactive”. For `CC(=O)Nc1ccc(NC(=S)Nc2ccccc2)cc1`, the activity change, negative = inhibition was inconclusive: 11.8%. In the case of `O=C(COC(=O)c1ccccc1NCCO)NCC1CCCCC1`, the activity change, negative = inhibition is reported as inconclusive: -19.3%. For `Cc1ccc(C(=O)NCCc2c[nH]c3ccccc23)c(C)c1`, the activity change, negative = inhibition was inconclusive: -12.3%. For `CSc1ccccc1C(=O)OCC(=O)Nc1cccnc1Cl`, the activity change, negative = inhibition was inconclusive: -13.2%. With `CN(CC(=O)Nc1cccc(S(=O)(=O)N2CCCC2)c1)CC(=O)Nc1ccc(Cl)c(C(F)(F)F)c1` the activity change, negative = inhibition was inconclusive: -1.84%. In the case of `CC1=NN(C(=O)c2ccc(Br)cc2)C(O)(c2ccccc2)C1` (stereo unspecified), the Potency is reported as inconclusive: 35.5 µM [falling, partial curve, poor fit]. For `CCOC(=O)c1sc(NC(=O)C2CC(=O)N(c3ccccc3C)C2)nc1C` (stereo unspecified), the Potency was inconclusive: 35.5 µM [falling, single point]. With `C=C(C)CNC(=S)Nc1cccc(N)n1` the activity change, negative = inhibition was “inactive”. For `Cc1ccc(/C=N/NC(=O)c2ccccc2OCc2cccc(Br)c2)o1`, the activity change, negative = inhibition was inconclusive: 0.124%. In the case of `Cc1cccc(NC(=O)C(C)OC(=O)c2ccccc2NS(=O)(=O)c2cc(C)c(C)c([N+](=O)[O-])c2)c1` (stereo unspecified), the activity change, negative = inhibition is reported as “inactive”. With `CCCNC(=O)CCNC(=O)c1ccc(C(C)(C)C)cc1` the activity change, negative = inhibition was inconclusive: -0.609%. With `COc1ccc(C(=O)Nc2ccc(-n3nncc3C(C)(C)C)cc2)cc1` the Potency was inconclusive: 35.5 µM [rising, partial curve, poor fit]. With `CCN(CC(=O)NCc1ccc(Cl)cc1)C(=O)c1cc2ccccc2o1` the activity change, negative = inhibition was “inactive”. In the case of `CC(=O)c1ccc(N2CCN(c3ncnc4c3c(-c3ccccc3)cn4-c3ccc(C)c(Cl)c3)CC2)cc1`, the activity change, negative = inhibition is reported as “inactive”. In the case of `CN(CC(=O)Nc1ccc(F)cc1)C(=O)COC(=O)c1cc([N+](=O)[O-])ccc1N1CCOCC1`, the Potency is reported as inconclusive: 18.4 µM [falling, partial curve, poor fit]. With `O=C1CC(Sc2nnnn2-c2ccccc2)C(=O)N1c1cccc(Cl)c1` (stereo unspecified) the activity change, negative = inhibition was inconclusive: 20.1%. With `Cc1noc(C)c1COc1ccc(CC(=O)NCc2ccccc2)cc1` the Potency was inconclusive: 14.1 µM [falling, partial curve]. For `O=C1N=C(N2CCCCC2)SC1=C1CCCCC1`, the Potency was inconclusive: 5.8 µM [falling, single point]. In the case of `CCOC(=O)c1sc(Nc2cccc(C)c2C)nc1C`, the Potency is reported as inconclusive: 11.2 µM [falling, partial curve, poor fit]. With `CCCCCC1CC(CC(=O)Nc2ccc([N+](=O)[O-])cc2)OC1=O` (stereo unspecified) the activity change, negative = inhibition was inconclusive: 12.2%. For `Cc1ccc(NC(=O)c2cc(-c3ccco3)on2)cc1`, the Potency was inconclusive: 20 µM [falling, partial curve]. In the case of `CO/N=C/c1ccc(Oc2ccc(C)cc2)c([N+](=O)[O-])c1`, the activity change, negative = inhibition is reported as inconclusive: 17.1%. In the case of `COc1cc2nc(CCc3ccccc3)oc(=O)c2cc1OC`, the Potency is reported as inconclusive: 22.4 µM [falling, partial curve, poor fit]. For `COc1ccc(-c2ccc3ccccc3n2)cc1`, the activity change, negative = inhibition was inconclusive: 4.88%. For `COc1ccc(Cl)cc1S(=O)(=O)N1CCN(C)CC1`, the activity change, negative = inhibition was inconclusive: 13.2%. In the case of `CC12CCC(=O)N1C(C(=O)Nc1nc(-c3ccccc3Cl)cs1)CS2` (stereo unspecified), the activity change, negative = inhibition is reported as inconclusive: 27.6%. With `COc1ccc(CNC(=O)Cn2nc(C)n3cccc3c2=O)cc1` the activity change, negative = inhibition was “inactive”. For `Cc1ccc(C(=O)Nc2ccc3c(c2)CCC3)cc1`, the activity change, negative = inhibition was inconclusive: -0.249%. For `Cc1sc2nc(COC(=O)c3ccc(N4CCCC4)c([N+](=O)[O-])c3)[nH]c(=O)c2c1C`, the activity change, negative = inhibition was “inactive”. For `COc1ccc(-c2nn(CCC(=O)O)cc2/C=C2\SC(N)=NC2=O)cc1OC`, the Potency was inconclusive: 2.06 µM [activator, partial curve]. With `CC(C)COc1ccc(C(=O)Nc2ccc(NC(=O)c3ccco3)c(Cl)c2)cc1` the activity change, negative = inhibition was inconclusive: 18.6%. For `COc1cc(/C=C(\C#N)c2ccccn2)ccc1OCc1ccccc1Cl`, the activity change, negative = inhibition was “inactive”.
